Measurements as given in patent publication US20180250393A1, “MANIPULATION OF T CELL AND MAST CELL ACTIVATION BY PIK3IP1” (UNIVERSITY OF PITTSBURGH-OF THE COMMONWEALTH SYSTEM OF …, priority 2017, published 2018).
Some of these results come from one statement about several compounds together. For at least one compound, name, drawing or mass did not settle the structure.

System: Naïve T cells from WT and KO mice
Test: Th1 differentiation assay with PI3K/Akt pathway inhibitors, IFN-γ expression by flow cytometry
Format: cell-based, mouse
Details: TrIP KO T cells, Th1 conditions, three days, re-stimulated with PMA/Ionomycin
Procedure: (A) Naïve T cells from WT and KO mice were cultured under Th1 conditions for three days in the presence of PI3K inhibitors (Akti, LY294002 and IC-87114), re-stimulated with PMA/Ionomycin and analyzed for IFNγ and CD25 expression. (B) Quantitation of A. p values were calculated using two-way ANOVA with Sidak's multiple comparisons test. p values are represented with the following symbols: *0.01-0.05, **0.001-0.01, ***<0.001. Data are representative of more than three experiments.
CD4 T cells from spleens and lymph nodes of naïve mice were purified by magnetic separation using the Miltenyi Biotec naïve CD4 T cell isolation kit (Cat#130-104-453). The purity of the final cell population was >90%. […] Cells were then harvested and analyzed by flow cytometry.
In order to determine whether the difference in Th1 polarization was actually due to the absence of PI3K modulation by TrIP, the Th1 differentiation assay was performed on WT and KO T cells with the addition of moderate concentrations of PI3K/Akt pathway inhibitors. […] At the end of culture, cells were re-stimulated with PMA/Ionomycin and evaluated by flow cytometry for IFN-γ expression. […]

## O=c1[nH]c2ccccc2n1C1CCN(Cc2ccc(-c3nc4cc5nc[nH]c5cc4nc3-c3ccccc3)cc2)CC1 [Akti-1/2]
  concentration at which IFN-γ production by KO cells was significantly inhibited: ≤ 0.5 µM

## Cc1ccccc1-n1c(Cn2cnc3c(N)ncnc32)nc2cccc(C)c2c1=O [IC-87114]
  concentration at which IFN-γ production by KO cells was significantly inhibited: ≤ 0.5 µM
